PubChem BioAssay AID1259274, Sanger Institute | 2017
Here is one part, drawn at random, of 794 deposited reagents. Over the whole deposit, 11 (1.4%) were called active. 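Calls rest on knock-down without drug only; synergy scores with anchor drugs were not used for the essential call.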 Unmarked entries are inactive. No viability above 1 is reported: the scale is capped. Further read-outs or replicates are left out here. Not given: the amount of reagent, the time to read-out.

Purpose: 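Kinase knock-downs that cut colorectal cancer cell viability or boost drug killing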 (primary screen)
System: human RKO colorectal cancer cells
Reagent: siRNA pool against human genes
Treatment: anchor drugs BYL719 at 1 µM, cetuximab at 5 µg/ml or trametinib at 10 nM; DMSO vehicle as the no-drug arm
Detection: 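Viability as fraction of non-targeting pool 2 control, averaged across replicates, robust z-score for single knock-down, and a combination synergy score per anchor drug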
Scale: viability z-score, siRNA alone: higher = more viable cells; low values mean essential gene; viability, siRNA alone, vehicle: higher = more viable cells; synergy score with BYL719 and synergy score with Trametinib: higher = stronger combined killing with the drug
Active means: 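Essential when the robust viability z-score with siRNA only falls below -3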
Meaning of the calls: active = essential when knocked down alone; inactive = no change alone

target | viability z-score, siRNA alone | viability, siRNA alone, vehicle (fraction of control) | synergy score with BYL719 | synergy score with Trametinib
PAK4 | 0.761 | 0.963 | -0.0413 | -0.142
STK32B | -0.974 | 0.815 | -0.0673 | -0.212
PRKCE | 0.739 | 0.961 | -0.168 | -0.12
PIK3R2 | 0.917 | 0.977 | -0.0183 | -0.0122
SRP72 | -0.765 | 0.832 | -0.138 | -0.152
WNK1 | -1.18 | 0.797 | -0.228 | -0.222
ULK1 | 0.0497 | 0.902 | -0.0601 | -0.11
WT1 | 0.318 | 0.925 | -0.0941 | -0.181
IGF1R | -0.12 | 0.888 | 0.0645 | 0.0163
IP6K2 | -0.576 | 0.849 | -0.0729 | -0.146
VRK2 | 0.394 | 0.932 | -0.00966 | -0.174
NUP98 | -5.21 (active) | 0.451 | -0.0819 | -0.152
ACVR2A | 1.19 | 1 | -0.00955 | -0.149
AK4 | 0.03 | 0.901 | -0.205 | -0.188
GRK4 | -0.979 | 0.814 | -0.0253 | -0.0666
CDK3 | -0.276 | 0.874 | 0.0177 | 0.0185
CAMK1 | -0.583 | 0.848 | -0.18 | -0.236
CSNK1G3 | 0.353 | 0.928 | -0.0663 | -0.0599
ZAP70 | 0.853 | 0.971 | -0.0446 | -0.089
HK2 | 1.19 | 1 | -0.0163 | -0.0966
PBK | 0.445 | 0.936 | -0.105 | -0.185
PRKD2 | -0.547 | 0.851 | -0.111 | -0.204
MPP3 | -0.564 | 0.85 | 0.0421 | -0.0501
PKMYT1 | 0.58 | 0.948 | 0.0265 | -0.109
STAG2 | -0.312 | 0.871 | -0.0875 | -0.189
PRKAR1A | 1.19 | 1 | 0.013 | -0.0701
FGFR3 | 0.253 | 0.92 | -0.0378 | -0.16
CDK1 | -0.706 | 0.838 | -0.139 | -0.184
KSR1 | -2.35 | 0.696 | -0.133 | -0.166
PRKY | 0.0409 | 0.902 | -0.0845 | -0.0405
CTCF | -2.1 | 0.718 | -0.124 | -0.0968
PIK3C2A | -2.04 | 0.723 | -0.0488 | 0.0577
AK1 | -0.00402 | 0.898 | -0.0395 | -0.2
PIK3CB | -0.442 | 0.86 | -0.116 | -0.189
PAK2 | 0.0641 | 0.904 | 0.03 | -0.148
SIK2 | 1.19 | 1 | -0.0686 | -0.216
SPEG | -0.623 | 0.845 | -0.113 | -0.174
CASP8 | 0.58 | 0.948 | -0.0498 | -0.146
HIPK1 | -0.148 | 0.885 | -0.0238 | -0.127
CDC42BPB | 0.696 | 0.958 | -0.0726 | -0.259
TPK1 | -0.966 | 0.815 | -0.0141 | -0.00828
MAP3K11 | 0.634 | 0.952 | 0.0635 | -0.0248
EEF2K | -0.879 | 0.823 | 0.0741 | -0.0134
GALK2 | 1.09 | 0.991 | -0.0573 | -0.103
ATP23 | 0.0731 | 0.904 | -0.0443 | -0.193
NTRK1 | -0.789 | 0.83 | -0.0238 | -0.0867
CDK11B | -2.13 | 0.715 | -0.0991 | -0.174
NTN4 | -0.389 | 0.865 | -0.0523 | -0.168
SMG1 | -0.39 | 0.865 | -0.0624 | -0.161
MYO3A | -1.01 | 0.811 | -0.12 | -0.222

5 entries from above in another layout.
{"target": "SPEG", "viability z-score, siRNA alone": -0.623, "viability, siRNA alone, vehicle (fraction of control)": 0.845, "synergy score with BYL719": -0.113, "synergy score with Trametinib": -0.174}
{"target": "CASP8", "viability z-score, siRNA alone": 0.58, "viability, siRNA alone, vehicle (fraction of control)": 0.948, "synergy score with BYL719": -0.0498, "synergy score with Trametinib": -0.146}
{"target": "HIPK1", "viability z-score, siRNA alone": -0.148, "viability, siRNA alone, vehicle (fraction of control)": 0.885, "synergy score with BYL719": -0.0238, "synergy score with Trametinib": -0.127}
{"target": "CDC42BPB", "viability z-score, siRNA alone": 0.696, "viability, siRNA alone, vehicle (fraction of control)": 0.958, "synergy score with BYL719": -0.0726, "synergy score with Trametinib": -0.259}
{"target": "TPK1", "viability z-score, siRNA alone": -0.966, "viability, siRNA alone, vehicle (fraction of control)": 0.815, "synergy score with BYL719": -0.0141, "synergy score with Trametinib": -0.00828}
